# Measured values: PMC5996148
# Values joined by “and” are separate entries in the source; they are usually repeats but may differ in a detail not shown here. Equal entries are not always repeated. The list shows a part of the results.
# Experiments:
# Assay in all cases: protein microarray (ProtoArray v5.0), streptavidin-Alexa Fluor 647
# Conditions in all cases: 3'-biotin; 20 mM Tris (pH 7.5), 5 mM MgCl2, 100 mM KCl, 0.1% Tween-20, A/T-rich and random oligonucleotide blockers; temperature not stated; high values mean tight binding
# MTAP (human) = system: MTAP (human)
# MTHFR (human) = system: MTHFR (human)
# MTMR1 (human) = system: MTMR1 (human)
# MTMR2 (human) = system: MTMR2 (human)
# MUCL1 (human) = system: MUCL1 (human)
# MX1 (human) = system: MX1 (human)
# MXD4 (human) = system: MXD4 (human)
# MYCBP (human) = system: MYCBP (human)
# Malcavernin (human) = system: Malcavernin (human)
# Mammaglobin-A (human) = system: Mammaglobin-A (human)
# [1] = system: Mannose-6-phosphate receptor-binding protein 1 (human)
# [2] = system: Mediator of RNA polymerase II transcription subunit 22 (human)
# [3] = system: Mediator of RNA polymerase II transcription subunit 4 (human)
# [4] = system: Melanocortin-2 receptor accessory protein (human)
# [5] = system: Melanoma-associated antigen 3 (human)
# Melanoregulin (human) = system: Melanoregulin (human)
# [6] = system: Membrane-associated progesterone receptor component 2 (human)
# [7] = system: Metal transporter CNNM3 (human)
# [8] = system: Mitochondrial coiled-coil domain protein 1 (human)
# [9] = system: Mitochondrial import inner membrane translocase subunit TIM14 (human)
sequence,measurement,setting,value
GGGGACAGGGGTATGGGGAGGGG [G4-3 biotinylated (CtG)],binding signal,MTAP (human),-0.306 z-score and -0.335 z-score
same,binding signal,MTHFR (human),-0.327 z-score
same,binding signal,MTMR1 (human),-0.328 z-score
same,binding signal,MTMR2 (human),-0.351 z-score
same,binding signal,MUCL1 (human),-0.309 z-score
same,binding signal,MX1 (human),-0.324 z-score
same,binding signal,MXD4 (human),-0.317 z-score
same,binding signal,MYCBP (human),-0.329 z-score
same,binding signal,Malcavernin (human),-0.328 z-score
same,binding signal,Mammaglobin-A (human),-0.333 z-score
same,binding signal,[1],-0.349 z-score
same,binding signal,[2],-0.342 z-score
same,binding signal,[3],-0.331 z-score
same,binding signal,[4],-0.296 z-score
same,binding signal,[5],-0.344 z-score
same,binding signal,Melanoregulin (human),-0.318 z-score
same,binding signal,[6],-0.301 z-score
same,binding signal,[7],-0.319 z-score
same,binding signal,[8],-0.333 z-score
same,binding signal,[9],4.56 z-score

# Shown with tabs: entries from further up.
sequence	measurement	setting	value
GGGGACAGGGGTATGGGGAGGGG [G4-3 biotinylated (CtG)]	binding signal	MTMR1 (human)	-0.328 z-score
same	binding signal	MTMR2 (human)	-0.351 z-score
same	binding signal	MUCL1 (human)	-0.309 z-score
same	binding signal	MX1 (human)	-0.324 z-score
same	binding signal	MXD4 (human)	-0.317 z-score
same	binding signal	MYCBP (human)	-0.329 z-score
